Test [1] deals with (His)6-Raf-1 protein (UniProt P04049). The test can be described thus: bacterial lysates mixed, anti-FLAG bead pull-down, immunoblot (FIG. 8c).
For test [2] the target is unchanged. The test can be described thus: totally cell-free pull-down on anti-FLAG beads, anti-Raf-1 immunoblot. (In general: Immunoblotting shows a protein as a band on a membrane.)

The chains behind the UniProt entries cited, without tags or fusion partners. Where a name states a change or a piece, a line headed by the entry shows the natural chain unless it says otherwise.
UniProt P14784: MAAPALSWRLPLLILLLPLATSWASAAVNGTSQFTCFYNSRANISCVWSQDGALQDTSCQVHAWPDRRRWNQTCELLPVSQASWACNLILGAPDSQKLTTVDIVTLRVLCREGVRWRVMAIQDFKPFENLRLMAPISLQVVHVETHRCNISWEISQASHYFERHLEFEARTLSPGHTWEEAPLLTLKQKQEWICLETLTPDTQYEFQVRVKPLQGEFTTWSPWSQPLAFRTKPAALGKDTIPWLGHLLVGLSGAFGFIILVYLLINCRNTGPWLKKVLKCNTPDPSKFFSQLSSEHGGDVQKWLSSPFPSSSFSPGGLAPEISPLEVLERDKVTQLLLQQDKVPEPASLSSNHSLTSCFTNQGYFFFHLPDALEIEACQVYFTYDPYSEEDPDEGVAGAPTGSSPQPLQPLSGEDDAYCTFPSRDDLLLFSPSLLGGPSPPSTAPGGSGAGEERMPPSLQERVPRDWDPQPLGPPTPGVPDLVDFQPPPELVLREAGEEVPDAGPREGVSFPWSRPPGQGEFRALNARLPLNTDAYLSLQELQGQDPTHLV

No constants are given. Whether binding was seen depends on the method and setting. Some binding calls cover weakened binding; strength is not graded here.

Take “FLAG-HMK-IL-2Rβ chain cytoplasmic domain wild type fusion protein (from UniProt P14784 266-551) (receptor)”: the binding result in the test with (His)6-Raf-1 protein [1] and with (His)6-Raf-1 protein [2] was “binds” throughout.

For the origin of these results see patent US20010016194A1, “COMPOUNDS THAT INHIBIT THE BINDING OF RAF-1 OR 14-3-3 PROTEINS TO THE BETA CHAIN OF IL-2 RECEPTOR, AND PHARMACEUTICAL COMPOSITIONS CONTAINING SAME” (priority 1999, published 2001).
